Taken from: PubChem BioAssay AID504793 (Drosophila RNAi Screening Center, 2011)

- Aim: 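Knock-downs allowing continued mitosis even though DNA is damaged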 (primary screen)
- Cell system: Drosophila S2R+ cells
- Knock-down reagent: long dsRNA against Drosophila genes, about 0.25 µg dsRNA per well
- Time to read-out: 4 days of dsRNA, then 4 hours of drug before read-out
- Treatment: doxorubicin 0.5 µM for 4 hours to cause double-strand breaks, in cells also given a low, harmless dose of dsRNA against nbs to sensitise the assay
- Measured: 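Mitotic index as the number of phospho-histone H3-positive cells in each well following doxorubicin, given as raw counts without normalisation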
- Reading the numbers: mitotic cells: higher = more cells in mitosis, weaker G2 arrest
- Hit rule: 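a call needs confirmation in secondary tests, with other dsRNAs and a check of mitotic timing without damage, not just a high primary count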
- Calls: active = confirmed in follow-up tests; inactive = not confirmed
The deposit covers about 23,000 reagents; below is a random part of those that have a named target and a result. Over the whole deposit, 62 (0.27%) got an active call. 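Calls come from follow-up tests whose scores are not deposited, so confirmed genes may have low counts here; counts are not normalised per plate.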 Raw values are not corrected between plates. A plus sign joins genes that one reagent is predicted to hit.

| Gene | DRSC id | mitotic cells, replicate 1 | outcome |
| --- | --- | --- | --- |
| IntS12 (Integrator 12) | DRSC15818 | 15 | inactive |
| CG43347 | DRSC23007 | 12 | inactive |
| CG43347 | DRSC23170 | 1 | inactive |
| CG43347 | DRSC25782 | 3 | inactive |
| CG43347 | DRSC29367 | 6 | inactive |
| RIC-3 (RIC3 acetylcholine receptor chaperone) | DRSC04243 | 8 | inactive |
| RIC-3 (RIC3 acetylcholine receptor chaperone) | DRSC04543 | 5 | inactive |
| Cyp28a5 (Cytochrome P450 28a5) | DRSC03297 | 9 | inactive |
| RpS10b (Ribosomal protein S10b) | DRSC19561 | 11 | inactive |
| Wdr33 (WD repeat domain 33) | DRSC12162 | 7 | inactive |
| Wdr33 (WD repeat domain 33) | DRSC27065 | 5 | inactive |
| CG33941 | DRSC37786 | 4 | inactive |
| CG33941 | DRSC39124 | 12 | inactive |
| CG33941 | DRSC39125 | 12 | inactive |
| stx (stuxnet) | DRSC23075 | 16 | inactive |
| stx (stuxnet) | DRSC29601 | 2 | inactive |
| Ugt36F1 (UDP-glycosyltransferase family 36 member F1) | DRSC02601 | – | inactive |
| CG7110 | DRSC03011 | 9 | inactive |
| CG7110 | DRSC03012 | 2 | inactive |
| IleRS (Isoleucyl-tRNA synthetase) | DRSC11667 | 6 | inactive |
| CG12589 | DRSC12215 | 12 | inactive |
| CG13223 | DRSC06344 | 13 | inactive |
| Rad1 + Sws1 | DRSC00778 | 5 | inactive |
| m (miniature) | DRSC20181 | 17 | inactive |
| m (miniature) | DRSC29636 | – | inactive |
| Mal-B1 (Maltase B1) | DRSC02416 | 4 | inactive |
| Mal-B1 (Maltase B1) | DRSC25542 | 4 | inactive |
| RNaseP:RNA (Ribonuclease P RNA) | DRSC22967 | 9 | inactive |
| CG31626 + CG8677 | DRSC21844 | 12 | inactive |
| CG31626 + CG8677 | DRSC25078 | 4 | inactive |
| rngo (rings lost) | DRSC19903 | 13 | inactive |
| rngo (rings lost) | DRSC26936 | 5 | inactive |
| IleRS-m (Isoleucyl-tRNA synthetase, mitochondrial) | DRSC10506 | 6 | inactive |
| Obp59a (Odorant-binding protein 59a) | DRSC04160 | – | inactive |
| CG15445 | DRSC20517 | 6 | inactive |
| Tap42 (Two A-associated protein of 42kDa) | DRSC02967 | 5 | inactive |
| Tap42 (Two A-associated protein of 42kDa) | DRSC24168 | 9 | inactive |
| CG8281 | DRSC10976 | 2 | inactive |
| Toll-4 | DRSC03458 | 4 | inactive |
| bero (belly roll) | DRSC03211 | 1 | inactive |
| bero (belly roll) | DRSC24416 | 11 | inactive |
| ND-51 (NADH dehydrogenase (ubiquinone) 51 kDa subunit) | DRSC03145 | 5 | inactive |
| Jhe (Juvenile hormone esterase) | DRSC07174 | 9 | inactive |
| Jhe (Juvenile hormone esterase) | DRSC29206 | 2 | inactive |
| CG9444 | DRSC16493 | 5 | inactive |
| CR30068 (retired record) | DRSC05477 | 1 | inactive |
| CR30068 (retired record) | DRSC27393 | 6 | inactive |
| ksh (kish) | DRSC19554 | 46 | inactive |
| ksh (kish) | DRSC28147 | 4 | inactive |
| Tbc1d22 (TBC1 domain family member 22) | DRSC15867 | 9 | inactive |
| term (terminus) | DRSC21730 | 6 | inactive |
| CG9426 | DRSC03219 | 9 | inactive |
| Crtp (Caldesmon-related protein) | DRSC04604 | 5 | inactive |
| Crtp (Caldesmon-related protein) | DRSC26423 | 5 | inactive |
| PGAP5 (Post-GPI attachment to proteins 5) | DRSC03089 | 7 | inactive |
| PGAP5 (Post-GPI attachment to proteins 5) | DRSC27504 | 3 | inactive |
| l(3)mbt (lethal (3) malignant brain tumor) | DRSC16983 | 13 | inactive |
| l(3)mbt (lethal (3) malignant brain tumor) | DRSC26103 | 5 | inactive |
| CG7164 | DRSC03018 | 7 | inactive |
| CG7164 | DRSC28704 | 2 | inactive |
| CG3704 | DRSC18174 | 12 | inactive |
| CG3704 | DRSC18645 | 13 | inactive |
| CG3704 | DRSC28218 | 2 | inactive |
| Dip-B (Dipeptidase B) | DRSC16466 | 4 | inactive |
| Dip-B (Dipeptidase B) | DRSC25975 | 11 | inactive |
| CG6071 | DRSC10579 | 8 | inactive |
| CG5191 | DRSC15733 | 8 | inactive |
| CG5191 | DRSC15734 | 11 | inactive |
| CG5191 | DRSC21559 | 7 | inactive |
| CG5191 | DRSC27689 | 1 | inactive |
| Sema2a (Semaphorin 2a) | DRSC07551 | 3 | inactive |
| Pgant4 (Polypeptide N-Acetylgalactosaminyltransferase 4) | DRSC00717 | 8 | inactive |
| Pgant4 (Polypeptide N-Acetylgalactosaminyltransferase 4) | DRSC29585 | 6 | inactive |
| CG43322 | DRSC02280 | 6 | inactive |
| CG43322 | DRSC27089 | 7 | inactive |
| ctp (cut up) | DRSC18758 | 17 | inactive |
| ctp (cut up) | DRSC25165 | 11 | inactive |
| CG10674 | DRSC09775 | 7 | inactive |
| mfr (misfire) | DRSC10543 | 4 | inactive |
| PH4alphaNE3 (prolyl-4-hydroxylase-alpha NE3) | DRSC16541 | 3 | inactive |
| PH4alphaNE3 (prolyl-4-hydroxylase-alpha NE3) | DRSC24337 | 9 | inactive |
| CG42537 | DRSC12519 | 10 | inactive |
| Dhc98D (Dynein heavy chain at 89D) | DRSC16645 | 15 | inactive |
| Dhc98D (Dynein heavy chain at 89D) | DRSC27784 | 5 | inactive |
| Srlp (Spliceosome-ribosome linker protein) | DRSC15890 | – | inactive |
| CaMKII (Calcium/calmodulin-dependent protein kinase II) | DRSC17214 | 4 | inactive |
| CG10803 | DRSC17763 | 7 | inactive |
| CG10803 | DRSC26282 | 5 | inactive |
| CG15236 | DRSC23025 | 7 | inactive |
| CG15236 | DRSC25883 | 7 | inactive |
| Ctr1A (Copper transporter 1A) | DRSC18336 | 3 | inactive |
| CG10445 | DRSC14247 | 6 | inactive |
| CG33159 | DRSC08199 | 11 | inactive |
| BG642163 | DRSC00342 | 4 | inactive |
| BG642163 | DRSC00343 | 2 | inactive |
| CG5440 | DRSC00685 | 5 | inactive |
| CG5440 | DRSC29429 | 7 | inactive |
| Crz (Corazonin) | DRSC16615 | 3 | inactive |
| promL (prominin-like) | DRSC08733 | 7 | inactive |
| Cpr56F (Cuticular protein 56F) | DRSC07326 | 7 | inactive |
| Cpr56F (Cuticular protein 56F) | DRSC24002 | 5 | inactive |
| tinc (tincar) | DRSC14798 | 7 | inactive |
| tinc (tincar) | DRSC14799 | 5 | inactive |
| tinc (tincar) | DRSC16308 | 7 | inactive |
| tinc (tincar) | DRSC16309 | 12 | inactive |
| CG13829 | DRSC14679 | 10 | inactive |
| pgc (polar granule component) | DRSC04099 | 6 | inactive |
| RnrS (Ribonucleoside diphosphate reductase small subunit) | DRSC07533 | 7 | inactive |
| RnrS (Ribonucleoside diphosphate reductase small subunit) | DRSC23541 | 5 | inactive |
| ana1 (anastral spindle 1) | DRSC16079 | 8 | inactive |
| ana1 (anastral spindle 1) | DRSC21825 | 3 | inactive |
| ana1 (anastral spindle 1) | DRSC30086 | 3 | inactive |

Targets listed so far whose target name begins with M or m:
| Gene | DRSC id | mitotic cells, replicate 1 | outcome |
| --- | --- | --- | --- |
| m (miniature) | DRSC20181 | 17 | inactive |
| m (miniature) | DRSC29636 | – | inactive |
| Mal-B1 (Maltase B1) | DRSC02416 | 4 | inactive |
| Mal-B1 (Maltase B1) | DRSC25542 | 4 | inactive |
| mfr (misfire) | DRSC10543 | 4 | inactive |
